According to PubChem BioAssay AID180 (DTP/NCI, 2004):
The list does not hold the whole screen: it is rich in T/C values a quarter to a half above the control, in often repeated tests (any T/C) and in doses without a T/C. Further doses and runs are listed elsewhere. T/C gives the treated animals as a percentage of the vehicle group. Schedule codes are those of the source, taken here to give the interval after Q, in days (D) or hours (H), and the number of doses after X. Some T/C values carry the count of animals alive at the toxicity check (mostly the fifth day); where none is given, no animal had died by that day. Some entries hold several experiments; the results are listed from low to high. Some doses have a count of surviving animals in place of a T/C: the source files T/C as zero there, which appears to mark a toxic dose or a test without result, not a measured value. Survivors were counted at the toxicity check, usually on the fifth day, unless a day is given; later deaths do not show.

Test system: BDF1 mice, Adenocarcinoma 755 s.c., tumor weight T/C
Assay: NCI In Vivo Anticancer Drug Screen. Data for tumor model Adenocarcinoma 755 (subcutaneous) in B6D2F1 (BDF1) mice
Conditions: T/C endpoint: mean tumor weight, higher T/C = larger tumour; for T/C: evaluated on day 12
Method in brief: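 In vivo antitumor screen on a transplantable tumor line. Result equals the measure in compound-treated animals divided by the same measure in vehicle controls.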

[1] = dose: 250.0 mg/kg/injection, schedule: Q01DX011 (ip), vehicle: methylcellulose (MC)
[2] = dose: 500.0 mg/kg/injection, schedule: Q01DX011 (ip), vehicle: methylcellulose (MC)
[3] = dose: 50.0 mg/kg/injection, schedule: Q01DX011 (ip), vehicle: carboxymethylcellulose (CMC)
[4] = dose: 100.0 mg/kg/injection, schedule: Q01DX011 (ip), vehicle: carboxymethylcellulose (CMC)
[5] = dose: 200.0 mg/kg/injection, schedule: Q01DX011 (ip), vehicle: carboxymethylcellulose (CMC)
[6] = dose: 240.0 mg/kg/injection, schedule: Q01DX011 (ip), vehicle: carboxymethylcellulose (CMC)
[7] = dose: 125.0 mg/kg/injection, schedule: Q01DX011 (ip), vehicle: methylcellulose (MC)
[8] = dose: 116.0 mg/kg/injection, schedule: Q01DX011 (ip), vehicle: carboxymethylcellulose (CMC)
[9] = dose: 433.0 mg/kg/injection, schedule: Q01DX011 (ip), vehicle: carboxymethylcellulose (CMC)

Cc1cc2nc3c(=O)[nH]c(=O)nc-3n(CCOC(=O)CCC(=O)O)c2cc1C
T/C (dose: 31.5 mg/kg/injection, schedule: Q01DX011 (ip), vehicle: carboxymethylcellulose (CMC)): 145 % of control [9 of 10 alive] | T/C (dose: 63.0 mg/kg/injection, schedule: Q01DX011 (ip), vehicle: carboxymethylcellulose (CMC)): 145 % of control | survivor count [1]: 4 of 10 | survivor count (dose: 320.0 mg/kg/injection, schedule: Q01DX011 (ip), vehicle: carboxymethylcellulose (CMC)): 2 of 10 | survivor count [2]: 5 of 10

NC(CS)C(=O)O (centres undefined) (tested in a mixture with another compound)
survivor count (dose: 500.0 mg/kg/injection, schedule: Q01DX011 (ip), vehicle: saline): 2 of 10 | survivor count (dose: 520.0 mg/kg/injection, schedule: Q01DX011 (ip), vehicle: saline): 4 of 10

O=C(CC[n+]1ccccc1)N1CCN(C(=O)CC[n+]2ccccc2)CC1
survivor count (dose: 5.0 mg/kg/injection, schedule: Q01DX011 (ip), vehicle: methylcellulose (MC)): 1 of 10

CCOC(=O)n1cnc2ncnc(SC)c21
T/C (dose: 1.0 mg/kg/injection, schedule: Q01DX011 (ip), vehicle: carboxymethylcellulose (CMC)): 141 % of control | survivor count (dose: 300.0 mg/kg/injection, schedule: Q01DX011 (ip), vehicle: carboxymethylcellulose (CMC)): 1 of 10 | survivor count (dose: 400.0 mg/kg/injection, schedule: Q01DX011 (ip), vehicle: carboxymethylcellulose (CMC)): 0 of 10

O=S(=O)(NCc1ccccc1)c1ncnc2nc[nH]c12
survivor count [3]: 5 of 10

O=[N+]([O-])c1cc([N+](=O)[O-])c(NN(c2ccccc2)c2ccccc2)c([N+](=O)[O-])c1
T/C (dose: 12.5 mg/kg/injection, schedule: Q01DX011 (ip), vehicle: other): 136 % of control | survivor count (dose: 50.0 mg/kg/injection, schedule: Q01DX011 (ip), vehicle: other): 6 of 10

COc1cc(C(=O)[O][Hg][CH2]C2CC(O)CC([CH2][Hg][O]C(=O)c3cc(OC)c(OC)c(OC)c3)O2)cc(OC)c1OC (centres undefined)
survivor count [3]: 5 of 10 | survivor count [4]: 0 of 10 | survivor count [5]: 0 of 10

Nc1nc(C(F)(F)F)c2ncn(Cc3ccccc3)c2n1
survivor count (dose: 30.0 mg/kg/injection, schedule: Q01DX011 (ip), vehicle: carboxymethylcellulose (CMC)): 6 of 10 | survivor count [6]: 3 of 10

CCOC(O)C(F)(F)F (centres undefined)
survivor count (dose: 176.0 mg/kg/injection, schedule: Q01DX011 (ip), vehicle: methylcellulose (MC)): 3 of 10 | survivor count [5]: 0 of 10

CSc1ncc(Br)c(SC)n1
survivor count (dose: 15.0 mg/kg/injection, schedule: Q01DX011 (ip), vehicle: methylcellulose (MC)): 1 of 10 | survivor count [7]: 6 of 10 | survivor count [1]: 1 of 10

CCCCN(C)N=Nc1ccc(OCC(=O)NN)cc1
survivor count (dose: 75.0 mg/kg/injection, schedule: Q01DX011 (ip), vehicle: carboxymethylcellulose (CMC)): 3 of 10 | survivor count [4]: 0 of 10

Cn1c(=O)c2[nH]cnc2n(C)c1=O
T/C [8]: 131 % of control [8 of 10 alive] | survivor count [8]: 6 of 10 | survivor count (dose: 126.0 mg/kg/injection, schedule: Q01DX011 (ip), vehicle: carboxymethylcellulose (CMC)): 2 of 10

Nc1ncnc2c1cnn2CCCl
survivor count (dose: 16.0 mg/kg/injection, schedule: Q01DX011 (ip), vehicle: carboxymethylcellulose (CMC)): 0 of 10 | survivor count (dose: 50.0 mg/kg/injection, schedule: Q01DX011 (ip), vehicle: saline): 0 of 10 | survivor count (dose: 100.0 mg/kg/injection, schedule: Q01DX011 (ip), vehicle: saline): 0 of 10

CCOC(=O)C1=C(C)NC(C)=C(C(=O)OCC)C1C
survivor count (dose: 500.0 mg/kg/injection, schedule: Q01DX011 (ip), vehicle: other): 1 of 10

CCC(C)Cn1cnc2c(SCc3ccccn3)nc(N)nc21 (centres undefined)
T/C (dose: 8.1 mg/kg/injection, schedule: Q01DX011 (ip), vehicle: methylcellulose (MC)): 140 % of control [9 of 10 alive] | survivor count (dose: 20.0 mg/kg/injection, schedule: Q01DX011 (ip), vehicle: methylcellulose (MC)): 6 of 10

O=C(Nc1ccc(NC2=NCCN2)cc1)c1ccc(C(=O)Nc2ccc(NC3=NCCN3)cc2)cc1
T/C (dose: 2.0 mg/kg/injection, schedule: Q01DX011 (ip), vehicle: saline): 143 % of control [9 of 10 alive] | survivor count (dose: 32.0 mg/kg/injection, schedule: Q01DX011 (ip), vehicle: saline): 0 of 10 | survivor count (dose: 64.0 mg/kg/injection, schedule: Q01DX011 (ip), vehicle: saline): 0 of 10

COc1ccc(C[n+]2cc([O-])on2)cc1
T/C (dose: 25.0 mg/kg/injection, schedule: Q01DX011 (ip), vehicle: carboxymethylcellulose (CMC)): 18, 30, 47 [9 of 10 alive], 72 [9 of 10 alive], 108 % of control | T/C [3]: 18 and 83 % of control | survivor count [3]: 2 of 10 and 4 of 10 | survivor count [4]: 2 of 10

Nc1nc2c(nc(Br)n2C2OC(CO)C(O)C2O)c(=O)[nH]1 (centres undefined)
survivor count [6]: 5 of 10

CC(=O)[C@H]1CC[C@H]2[C@@H]3CCC4=CC(=O)[C@H](C)C[C@]4(C)[C@@]3(F)C(=O)C[C@]12C
T/C (dose: 3.0 mg/kg/injection, schedule: Q01DX011 (sc), vehicle: steroid suspending solution): 132 % of control | survivor count (dose: 150.0 mg/kg/injection, schedule: Q01DX011 (sc), vehicle: steroid suspending solution): 7 of 12 | survivor count (dose: 300.0 mg/kg/injection, schedule: Q01DX011 (sc), vehicle: steroid suspending solution): 2 of 12 | survivor count (dose: 400.0 mg/kg/injection, schedule: Q01DX011 (sc), vehicle: steroid suspending solution): 5 of 10

COc1ccc(C[C@H](N)C(=O)NC2C(CO)OC(n3cnc4c(N(C)C)ncnc43)C2O)cc1 (some centres undefined)
survivor count (dose: 136.5 mg/kg/injection, schedule: Q01DX011 (ip), vehicle: carboxymethylcellulose (CMC)): 1 of 10 | survivor count (dose: 180.0 mg/kg/injection, schedule: Q01DX011 (ip), vehicle: carboxymethylcellulose (CMC)): 4 of 10

COS(C)(=O)=O
survivor count [4]: 1 of 10 | survivor count [5]: 0 of 10

NC(=O)c1cc(N)nc(N)n1
survivor count [1]: 1 of 10

CN(C)C1C(=O)C(C(N)=O)=C(O)C2(O)C(=O)C3=C(O)c4c(O)cccc4C(C)(O)C3C(O)C12 (centres undefined)
T/C (dose: 39.72 mg/kg/injection, schedule: Q01DX011 (ip), vehicle: carboxymethylcellulose (CMC)): 130 % of control [8 of 10 alive] | T/C (dose: 63.56 mg/kg/injection, schedule: Q01DX011 (ip), vehicle: carboxymethylcellulose (CMC)): 126 % of control

CSc1ncc(C)c(Nc2ccc(Cl)cc2)n1
T/C (dose: 31.0 mg/kg/injection, schedule: Q01DX011 (ip), vehicle: methylcellulose (MC)): 138 % of control [8 of 10 alive] | survivor count (dose: 62.0 mg/kg/injection, schedule: Q01DX011 (ip), vehicle: methylcellulose (MC)): 6 of 10 | survivor count [7]: 1 of 10

c1ncc2[nH]cnc2n1
T/C (dose: 108.25 mg/kg/injection, schedule: Q01DX011 (ip), vehicle: carboxymethylcellulose (CMC)): 129 % of control [9 of 10 alive] | T/C (dose: 216.5 mg/kg/injection, schedule: Q01DX011 (ip), vehicle: carboxymethylcellulose (CMC)): 55, 100, 103, 108 % of control | T/C [9]: 13 [9 of 10 alive], 31, 57 % of control [9 of 10 alive] | survivor count [9]: 6 of 10 | survivor count [2]: 2 of 10

S=c1nc[nH]c2nc[nH]c12.[Cd]
survivor count (dose: 1.5 mg/kg/injection, schedule: Q01DX011 (ip), vehicle: saline): 3 of 10 | survivor count (dose: 6.0 mg/kg/injection, schedule: Q01DX011 (ip), vehicle: saline): 2 of 10
